Experimental data reported in US20080089859A1, “ADMINISTRATION OF SLEEP RESTORATIVE AGENTS” (priority 2001, published 2008).
Some results come without the dose or concentration used.

Tested on: patients having rheumatoid arthritis
Test: Heart variability data of rheumatoid arthritis patients treated with soluble TNFα receptor
Format: in vivo, human

## Etanercept
Treatment Success group, N 20
  TENSION (tension index), Mean: 202.60
  TPOWER (total power), Mean: 631.90
  VAGUS (vagus tone), Mean: .1765
Treatment failure group, N 21
  TENSION (tension index), Mean: 598.05
  TPOWER (total power), Mean: 258.71
  VAGUS (vagus tone), Mean: .1005
